Results from PMC12669049 (Nature Chemistry, 2025).

System: HeLa-HaloTag-mGluR2
Experiment: Extracellular DarT labelling, LFQ proteomics
Format: cell-based, human
Conditions: transfected vs untransfected HeLa

Cn1c2nc(=O)n(CC(=O)NCCOCCOCCOCCOCCCCCCCl)c(=O)c-2cc2ccccc21 [compound 13]
Cell-surface proteins as share of the enriched proteins: 30%
Number of significantly enriched proteins (P < 0.05, log2(fold change) > 1) (5 µM 30 min, diazirine 8 250 µM, 450 nm 15 min, three replicates): 169
Number of enriched proteins annotated as cell-surface proteins (diazirine 8 250 µM, 450 nm 15 min): 51
